The other results are listed elsewhere or left out. These are raw signals, not scaled to a control.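 Primary screen: polymyxin B was added at a level permeabilizing Salmonella outer membranes while sparing inner membranes. DMSO wells, both with and without polymyxin B, established maximum growth. Plate-to-plate variation meant each plate was ranked on its own, and the lowest-OD600 compounds were selected as hits.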
System: Salmonella enterica serovar Typhimurium SL1344
Assay: bacterial growth OD600 after 18 h with compound and polymyxin B; higher = more bacterial growth (less inhibition)
Settings: 50 µM, Mueller-Hinton broth

| Compound | bacterial growth OD600 (polymyxin B 1 µg/mL) | bacterial growth OD600 (polymyxin B 0.75 µg/mL) |
| --- | --- | --- |
| CCCCN(C)C(=O)c1nc2ccccn2c1CNCc1c(OC)ccc2ccccc12 | 0.004 | – |
| Cc1ccc(C)c(-n2cc(CN3CCCC(C(N)=O)C3)c(-c3ccccc3)n2)c1 (configuration not stated) | 0.731 | – |
| COCCN1C(=O)CC(CC(=O)N(C)CCC23CC4CC(CC(C4)C2)C3)(c2ccccc2OC)C1=O (configuration not stated) | – | 0.004 |
| Cc1cc(C(=O)NC2CC(=O)N(Cc3ccccc3C(F)(F)F)C2)nn1C (configuration not stated) | 0.774 | – |
| Cc1c[nH]c(C(=O)N2CCC3(CCCN(Cc4ccc(F)c(F)c4)C3=O)C2)n1 (configuration not stated) | 0.911 | – |
| CSCCC(=O)N1CCC(C2CCN(Cc3cccc(F)c3F)CC2)C1 (configuration not stated) | – | 0.853 |
| CC1(C)C(=O)NCCN1Cc1cn(-c2ccccc2)nc1-c1ccc2c(c1)OCO2 | 0.845 | – |
| CCc1ocnc1C(=O)NC1CC(=O)N(Cc2cccc3ccccc23)C1 (configuration not stated) | 1.08 | – |
| Cc1ccc(CN2CCN(Cc3ccc(F)cc3F)CC2CCO)o1 (configuration not stated) | 0.904 | – |
| COCc1noc(-c2ccc(NC[C@H]3CCc4ccccc4O3)nc2)n1 | 0.767 | – |
| CC(C)CS(=O)(=O)c1ncc(CN(C)CC2CCOCC2)n1Cc1ccccc1 | 0.633 | – |
| COCC(=O)NC1CC(=O)N(Cc2ccccc2C(F)(F)F)C1 (configuration not stated) | 0.865 | – |
| O=C(/C=C/c1cccnc1)N1CCC2(CCCN(CCc3ccccc3)C2)C1 (configuration not stated) | – | 0.789 |
| COC(=O)CCC(=O)N1CCCC(C(=O)c2ccc3cc(OC)ccc3c2)C1 (configuration not stated) | 0.788 | – |
| CSc1ccc(CC2(CCC(=O)NC(C)c3cccs3)CCC(=O)N2)cc1 (configuration not stated) | – | 0.782 |
| CN(C)c1ncc(CN2CCC(Oc3ccccc3C(=O)N3CCCCC3)CC2)s1 | 1.21 | – |

| Compound | bacterial growth OD600 (polymyxin B 1 µg/mL) | bacterial growth OD600 (polymyxin B 0.75 µg/mL) |
| --- | --- | --- |
| CC(C)Nc1ccc(C(=O)N2CCCN(C3CCCCC3)CC2)cn1 | – | 0.885 |
| Cc1ccc(-c2cccc(CN3CCC(N4CCC(C(=O)NC(C)C)CC4)CC3)c2)o1 | 0.964 | – |
| Cc1cccc(NC(=O)CCC2CCN(C(=O)Cn3cnnn3)CC2)c1 | 0.97 | – |
| CCC(=O)N1CCOc2c(cc(-c3cccnc3)cc2OCCc2cccs2)C1 | – | 0.917 |
| COC(=O)CCC(=O)N1CCC(Oc2cccc(C(=O)NCc3ccccn3)c2)CC1 | 0.854 | – |
| CN(C)c1ncccc1CNCc1cccc(Oc2ccccc2)c1 | – | 0.682 |
| O=C(NC1CCCN(CCc2ccccc2)C1)c1ccc(F)c(Cl)c1 (configuration not stated) | – | 0.002 |
| CCN(Cc1ccncc1)C(=O)Cn1nnnc1CN1C[C@@H](C)O[C@@H](C)C1 | – | 0.836 |
| Cc1cccc(CN2CCCC3(CCN(c4nc(C)cnc4C)C3)C2=O)c1 (configuration not stated) | 1.08 | – |
| O=C(NCC1CCCN(C(=O)C[n+]2cc([O-])on2)C1)c1cccc2ccccc12 (configuration not stated) | – | 0.804 |
| COc1cccc(CC2(CCC(=O)NCC3(c4ccccc4)CCOCC3)CCC(=O)N2)c1 (configuration not stated) | – | 0.922 |
| CC1(C)Cc2c(cnn2-c2ccc(F)cc2)C(NC(=O)CCN2CCCCO2)C1 (configuration not stated) | 0.938 | – |
| CN(C)CCNc1ccc(-c2nc(-c3ccccc3F)no2)cn1 | 0.956 | – |
| Cc1ccccc1CCC1CCCN(C(=O)CCc2cn[nH]c2)C1 (configuration not stated) | – | 0.706 |
| COC(=O)CN(C)C(=O)c1coc(COc2cccc(F)c2F)n1 | – | 0.876 |
| Cc1[nH]c2ccccc2c1CC(=O)NCC1Cc2c(F)ccc(-c3ccc(C(N)=O)cc3)c2O1 (configuration not stated) | – | 0.739 |

Part of the list above in order of count of non-hydrogen atoms, low to high:

| Compound | bacterial growth OD600 (polymyxin B 1 µg/mL) | bacterial growth OD600 (polymyxin B 0.75 µg/mL) |
| --- | --- | --- |
| Cc1ccccc1CCC1CCCN(C(=O)CCc2cn[nH]c2)C1 (configuration not stated) | – | 0.706 |
| Cc1ccc(CN2CCN(Cc3ccc(F)cc3F)CC2CCO)o1 (configuration not stated) | 0.904 | – |
| CSCCC(=O)N1CCC(C2CCN(Cc3cccc(F)c3F)CC2)C1 (configuration not stated) | – | 0.853 |

— the supplement of paper PMC12889115
